The record followed here is article PMC10897394.

Changes are numbered by the printed parent chain. Names may count otherwise. These are yes or no findings as the source states them, for the method shown. Binding seen in cells or lysates may run through a third protein. Some entries that bind do so weakly or less than the wild type. Where a sequence is shown, tags or fusion partners need not be part of it.

Test in all cases: co-IP; plasmid pairs co-expressed in Arabidopsis protoplasts for 24 h; lysate on Anti-GFP Nanobody Agarose Beads, 4 °C 2 h; 50 mM Tris-HCl pH 7.4, 150 mM NaCl, 1 mM MgCl2, 10% glycerol, 0.5% Nonidet P-40; blots with anti-Myc and anti-GFP; some samples with 1 μM Pep1 for 20 min or in protoplasts from ROT4-overexpressing plants
Assay [1] deals with T1, GFP-ROT4(WT) (Arabidopsis thaliana) (UniProt Q7XXN8).
T1 sequence (chain, S-acylated in plant cells, C42 the predominant S-acylation site): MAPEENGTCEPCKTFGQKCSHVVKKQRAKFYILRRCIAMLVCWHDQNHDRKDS

The target in assay [2] is T2, GFP-ROT4(C42S) (Arabidopsis thaliana) (UniProt Q7XXN8).
T2 sequence: T1 sequence (chain, S-acylated in plant cells, C42 the predominant S-acylation site) with C42S

In assay [3] the target is T3, PEPR1-GFP (Arabidopsis thaliana) (UniProt Q9SSL9).
T3 sequence: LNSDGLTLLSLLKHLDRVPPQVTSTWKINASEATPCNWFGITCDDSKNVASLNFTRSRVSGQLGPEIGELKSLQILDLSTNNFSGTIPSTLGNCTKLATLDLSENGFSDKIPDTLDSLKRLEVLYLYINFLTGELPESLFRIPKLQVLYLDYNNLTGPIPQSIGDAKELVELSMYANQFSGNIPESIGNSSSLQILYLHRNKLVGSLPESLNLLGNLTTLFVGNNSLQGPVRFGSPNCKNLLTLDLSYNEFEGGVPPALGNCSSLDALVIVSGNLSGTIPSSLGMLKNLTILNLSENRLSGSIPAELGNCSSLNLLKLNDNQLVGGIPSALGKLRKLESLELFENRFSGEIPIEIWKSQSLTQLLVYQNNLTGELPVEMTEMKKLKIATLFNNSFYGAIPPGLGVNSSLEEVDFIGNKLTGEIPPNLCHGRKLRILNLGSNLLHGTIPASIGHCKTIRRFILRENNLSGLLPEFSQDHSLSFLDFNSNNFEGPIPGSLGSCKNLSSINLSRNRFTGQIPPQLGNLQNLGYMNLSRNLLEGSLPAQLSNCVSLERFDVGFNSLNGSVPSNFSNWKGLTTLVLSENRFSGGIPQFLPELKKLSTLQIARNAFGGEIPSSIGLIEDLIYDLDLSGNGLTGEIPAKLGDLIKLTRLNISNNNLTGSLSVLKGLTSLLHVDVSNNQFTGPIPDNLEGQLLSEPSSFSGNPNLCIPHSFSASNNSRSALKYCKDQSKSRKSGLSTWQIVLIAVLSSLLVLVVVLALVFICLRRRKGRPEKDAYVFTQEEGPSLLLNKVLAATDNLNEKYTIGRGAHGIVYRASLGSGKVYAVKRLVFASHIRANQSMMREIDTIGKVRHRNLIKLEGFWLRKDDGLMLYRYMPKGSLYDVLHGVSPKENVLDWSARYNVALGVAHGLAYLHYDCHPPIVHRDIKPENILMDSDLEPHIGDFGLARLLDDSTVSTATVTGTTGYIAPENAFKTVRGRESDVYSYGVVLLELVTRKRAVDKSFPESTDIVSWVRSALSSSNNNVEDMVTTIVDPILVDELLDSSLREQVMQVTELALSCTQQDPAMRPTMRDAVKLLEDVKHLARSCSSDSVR

B1: BSK5-Myc (enzyme, UniProt Q9FIL1 1-489)
chain: MGPRCSKLSLCWWPTHLKSTHNEASDLDNGTDDLPSFTEFSFDQLRAATCGFSTDSIVSEHGVKAPNVVYKGRLEDDRWIAVKRFNRSAWPDTRQFLEEAKAVGQLRNERLANLIGFCCEGDERLLVAEFMPFETLSKHLFHWDSQPMKWSMRLRVALYLAQALEYCSSKGRALYHDLNAYRILFDQDGNPRLSCFGLMKNSRDGKSYSTNLAFTPPEYLRTGRVIPESVVYSFGTLLLDLLSGKHIPPSHALDLIRGKNFLMLMDSCLDGHFSNDDGTDLVRLASRCLQYEARERPNVKSLVSSLAPLQKETDIPSHVLMGIPHGAASPKETTSLTPLGDACSRHDLTAIHEILEKVGYKDDEGVANELSFQVWTDQIQETLNSKKQGDAAFKGKDFVTAVECYTQFIEDGTMVSPTVFARRCLCYLMSNMPQEALGDAMQAQVVSPEWPTAFYLQAAALFSLGMDKDACETLKDGTSLEAKKHNNRN
Turning to B1, the binding entry in assay [1], in assay [2] and in assay [3] was “binds” throughout.

B2: BSK5(S209A/T210A)-Myc (enzyme, UniProt Q9FIL1 1-489)
chain: B1 chain with S209A, T210A
For the molecule B2, the binding result in assay [3] is listed as “binds”.
